# From the supplement of paper PMC10338343
# ± gives the standard deviation. The list shows a part of the results, in another mix than the full data. Many of these values have a large error.
# Key:
# Assay in all cases: pre-steady-state target cleavage rate (min^-1); MIWI and MILI are mouse PIWI proteins and EfPiwi is from a freshwater sponge; tags in brackets are library labels; higher = faster piRNA-guided slicing of the target
# [1] = test system: MILI (PIWIL2) piRISC loaded with L1MC piRNA (26 nt); conditions: guide: L1MC piRNA 5'p-UAACUAAAUACUAUGCAAGCUGUAGG
# Summary of the method: (§1)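 For Cleave-'n-Seq, a transcribed, DNA-blocked target RNA library […] met 1 nM active affinity-purified piRISC with one synthetic guide at 33 °C for 0–8 or 0–960 min in HEPES–potassium acetate buffer, with or without 500 nM GTSF1 partner protein. Uncleaved targets were sequenced and normalised to depth and weakly complementary targets, with three trials pooled and k3 capped at 0.0001 min^-1. A burst-and-steady-state fit supplied the pre-steady-state cleavage rate.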
# [2] = test system: MIWI (PIWIL1) piRISC loaded with L1MC piRNA (30 nt); conditions: guide: L1MC piRNA 5'p-UAACUAAAUACUAUGCAAGCUGUAGGUCCU
# Summary of the method: as §1
# [3] = test system: MILI (PIWIL2) piRISC loaded with piRNA #1 (26 nt); conditions: guide: piRNA #1 5'p-UGAGGUAGUAGGUUGUAUAGUAUCCA; auxiliary factor: 500 nM mouse GTSF1
# Summary of the method: as §1
# [4] = auxiliary factor: 500 nM mouse GTSF1
# [5] = auxiliary factor: none (no GTSF1)
# 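Further: 1 nM active piRISC with 0.1 nM target library at 33 °C single turnover.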
sequence,measurement,setting,value
UCCUGGAUGUCGAACCAUAGUAUUUAAUUA,pre-steady-state target cleavage rate,[1]; [4],0.000456 ± 0.017
same,pre-steady-state target cleavage rate,[2]; [4],0.000486 ± 0.013
same,pre-steady-state target cleavage rate,[2]; [5],0.000238 ± 0.016
UCCUGGAUGUCGAUGCUUAGUAUAUAGUUA,pre-steady-state target cleavage rate,[1]; [5],0.00179 ± 0.0041
same,pre-steady-state target cleavage rate,[2]; [5],0.000627 ± 0.011
UCCUGGAUGUCGUUGCAUAGUAAUAAGUUA,pre-steady-state target cleavage rate,[1]; [5],0.00272 ± 0.0028
same,pre-steady-state target cleavage rate,[2]; [5],0.00032 ± 0.017
UCCUGGUACAGCUUCCAUAGUAUUUUGUUA,pre-steady-state target cleavage rate,[1]; [5],0.00203 ± 0.0051
same,pre-steady-state target cleavage rate,[2]; [4],0.00347 ± 0.0057
same,pre-steady-state target cleavage rate,[2]; [5],0.00125 ± 0.0073
UCCUGGAUGUCGUUGCAUAGUUAUUAGUUA,pre-steady-state target cleavage rate,[1]; [4],0.00343 ± 0.0046
same,pre-steady-state target cleavage rate,[2]; [4],0.000504 ± 0.021
same,pre-steady-state target cleavage rate,[2]; [5],0.00114 ± 0.0079
UCCUGGAUGUCGAACGUAUUUAUUUAGUUA,pre-steady-state target cleavage rate,[1]; [5],< 0.0001
same,pre-steady-state target cleavage rate,[2]; [4],0.000589 ± 0.011
UCCUGGAUGUCGAACCAUAGUAUUUAGUA,pre-steady-state target cleavage rate,[1]; [4],0.000189 ± 0.017
same,pre-steady-state target cleavage rate,[2]; [4],0.000142 ± 0.028
same,pre-steady-state target cleavage rate,[2]; [5],0.000494 ± 0.0075
UCCUGGUACAGCUUGCAUUCUAUUUACAAA,pre-steady-state target cleavage rate,[1]; [5],0.00101 ± 0.0089
same,pre-steady-state target cleavage rate,[2]; [5],0.000219 ± 0.012
UCCUGCUACAGCUUGCAUAUGUAUUUAGUUA,pre-steady-state target cleavage rate,[1]; [5],0.00158 ± 0.0039
same,pre-steady-state target cleavage rate,[2]; [5],0.000797 ± 0.01
UCCUGCUACAGCUAGCAUAGUAUUUAGAAA,pre-steady-state target cleavage rate,[1]; [5],0.00129 ± 0.0053
same,pre-steady-state target cleavage rate,[2]; [5],0.00119 ± 0.0053
UCCUGGAUGUCGAACCAUAGUUUUUACUUA,pre-steady-state target cleavage rate,[1]; [4],0.000281 ± 0.025
same,pre-steady-state target cleavage rate,[2]; [4],0.000153 ± 0.035
same,pre-steady-state target cleavage rate,[2]; [5],0.000254 ± 0.016
UCCUGGAUCAGCUUGCAUAUGUAUUUAGUUA,pre-steady-state target cleavage rate,[1]; [5],0.00162 ± 0.0053
same,pre-steady-state target cleavage rate,[2]; [4],0.00291 ± 0.005
same,pre-steady-state target cleavage rate,[2]; [5],0.00154 ± 0.0049
UCCUGGAUGUCCUUGCAAUCUAUUUAGUAA,pre-steady-state target cleavage rate,[1]; [5],0.000442 ± 0.011
same,pre-steady-state target cleavage rate,[2]; [4],0.00231 ± 0.005
same,pre-steady-state target cleavage rate,[2]; [5],0.000442 ± 0.013
UCCUCCAACAGCUUGCAUAGUAUUUUCAAA,pre-steady-state target cleavage rate,[1]; [5],0.00125 ± 0.0039
same,pre-steady-state target cleavage rate,[2]; [5],0.00154 ± 0.0036
UCCUGGAUGAGCUUGCUAUAGUAUUUAGUUA,pre-steady-state target cleavage rate,[1]; [5],0.00068 ± 0.0093
same,pre-steady-state target cleavage rate,[2]; [4],0.00315 ± 0.0033
same,pre-steady-state target cleavage rate,[2]; [5],0.000992 ± 0.0065
UCCUGGAUGAGCUUGCAAAGUAUUUACAAA,pre-steady-state target cleavage rate,[1]; [5],0.000856 ± 0.0078
same,pre-steady-state target cleavage rate,[2]; [5],0.00209 ± 0.005
UCCUGGAUGUCGUUGCAUAGUUUUUAGUAA,pre-steady-state target cleavage rate,[1]; [5],0.0021 ± 0.0038
same,pre-steady-state target cleavage rate,[2]; [4],0.000875 ± 0.011
same,pre-steady-state target cleavage rate,[2]; [5],0.000823 ± 0.0095
UCCUGGAUCAGCUUGCAUAGUAAUUACAAA,pre-steady-state target cleavage rate,[1]; [5],0.0015 ± 0.0043
same,pre-steady-state target cleavage rate,[2]; [5],0.00148 ± 0.0049
UCCUGGAUGUCGAACGAUAGUUAUUUAGUUA,pre-steady-state target cleavage rate,[1]; [4],0.0003 ± 0.023
same,pre-steady-state target cleavage rate,[2]; [4],0.000271 ± 0.015
same,pre-steady-state target cleavage rate,[2]; [5],0.00037 ± 0.011
UCCUGGAUGUCGAAGCAUAGUAUUGUAGUUA,pre-steady-state target cleavage rate,[1]; [5],0.0009 ± 0.0077
same,pre-steady-state target cleavage rate,[2]; [4],0.000884 ± 0.0091
same,pre-steady-state target cleavage rate,[2]; [5],0.000467 ± 0.014
UCCUGGAACAGCUUGCAAUCUAUUUAGUAA,pre-steady-state target cleavage rate,[1]; [5],0.00065 ± 0.0091
same,pre-steady-state target cleavage rate,[2]; [5],0.00179 ± 0.0032
UCCUGCAACAGCUAGCAUAGUAUUUAGUUA,pre-steady-state target cleavage rate,[1]; [4],0.289 ± 0.02
same,pre-steady-state target cleavage rate,[2]; [4],1.12 ± 0.047
same,pre-steady-state target cleavage rate,[2]; [5],0.0185 ± 0.004
UCCUGGAUCAGCUUGCUAUCAUAAAUCAAA [g15:g22:cont:t1A],pre-steady-state target cleavage rate,[1]; [5],0.000431 ± 0.013
same,pre-steady-state target cleavage rate,[2]; [5],0.000334 ± 0.011
UCCUGGUACAGCUUGCAUACAUUUUUCAAA,pre-steady-state target cleavage rate,[1]; [5],0.00135 ± 0.0081
same,pre-steady-state target cleavage rate,[2]; [4],0.000835 ± 0.013
same,pre-steady-state target cleavage rate,[2]; [5],0.000553 ± 0.012
UCCUGGAUGUCGAACGUAUGUUUUUAGAUA,pre-steady-state target cleavage rate,[1]; [4],0.000118 ± 0.055
same,pre-steady-state target cleavage rate,[2]; [5],0.000206 ± 0.015
UCCUGGAUGUCGAAACAUAGUAUUUAGUUA,pre-steady-state target cleavage rate,[1]; [5],0.00147 ± 0.0051
same,pre-steady-state target cleavage rate,[2]; [4],0.0036 ± 0.0041
same,pre-steady-state target cleavage rate,[2]; [5],0.00062 ± 0.013
UCCUGGAUGUCGAACGUUAUGUAUUUAGUUA,pre-steady-state target cleavage rate,[1]; [5],0.000184 ± 0.026
same,pre-steady-state target cleavage rate,[2]; [4],0.000244 ± 0.024
same,pre-steady-state target cleavage rate,[2]; [5],0.000288 ± 0.023
UCCUGGUACAGCUUGCAUAGUUAUUUCAAA,pre-steady-state target cleavage rate,[1]; [5],0.000896 ± 0.0072
same,pre-steady-state target cleavage rate,[2]; [4],0.0036 ± 0.0059
same,pre-steady-state target cleavage rate,[2]; [5],0.000272 ± 0.0098
GGAGACCUAUCUAUACAUCCUACUACCUCA,pre-steady-state target cleavage rate,[3],0.182 ± 0.018
GGAGACCUAUGAAUACAACCUACUAGGACA,pre-steady-state target cleavage rate,[3],0.000407 ± 0.017
GGAGAGGUUACUUUACAACCUACUACCUCA,pre-steady-state target cleavage rate,[3],0.175 ± 0.01
UCCUGCUACAGCUUCCAUAGAAUUUAGUUA,pre-steady-state target cleavage rate,[1]; [5],0.000568 ± 0.012
same,pre-steady-state target cleavage rate,[2]; [4],0.0338 ± 0.013
same,pre-steady-state target cleavage rate,[2]; [5],0.000398 ± 0.0065

# 5 records drawn at random from those above:
sequence,measurement,setting,value
UCCUCCAACAGCUUGCAUAGUAUUUUCAAA,pre-steady-state target cleavage rate,[1]; [5],0.00125 ± 0.0039
UCCUGGUACAGCUUGCAUUCUAUUUACAAA,pre-steady-state target cleavage rate,[2]; [5],0.000219 ± 0.012
UCCUGGAUGUCGAACCAUAGUAUUUAAUUA,pre-steady-state target cleavage rate,[2]; [4],0.000486 ± 0.013
UCCUGGAUGUCGAACGAUAGUUAUUUAGUUA,pre-steady-state target cleavage rate,[1]; [4],0.0003 ± 0.023
UCCUGGAUGUCGAACCAUAGUAUUUAGUA,pre-steady-state target cleavage rate,[2]; [5],0.000494 ± 0.0075
